# Microarray screen: hit calls

Source: the ROBIN nucleic acid binder screens (doi:10.1002/anie.202211358).

Oligonucleotides screened, 5′ to 3′:
TPP: TPP riboswitch RNA three-way junction, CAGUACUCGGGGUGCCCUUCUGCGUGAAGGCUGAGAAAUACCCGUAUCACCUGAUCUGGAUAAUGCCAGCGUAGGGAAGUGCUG. About 24,000 compounds screened, about 160 hits.
SAM-II: SAM-II riboswitch RNA pseudoknot, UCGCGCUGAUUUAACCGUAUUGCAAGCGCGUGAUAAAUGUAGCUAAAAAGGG. About 21,000 compounds screened, about 200 hits.
PreQ1: PreQ1 riboswitch RNA pseudoknot, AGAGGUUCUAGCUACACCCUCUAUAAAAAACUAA. From B. subtilis. About 24,000 compounds screened, about 170 hits.

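Each compound is printed as two spots on a slide made to bind it covalently, so it has no test concentration; the read-out is fluorescence of the bound, labelled oligonucleotide. For the PreQ1, TPP and SAM-II riboswitches the laboratory earlier reported (doi:10.1038/s41467-019-09493-3) 1 µM RNA, 2 h, and a rule that included a mean Z-score above 3 (spot signal-to-noise against the whole library), a score well above that on a control array, and duplicate spots agreeing (coefficient of variation under 100). The data file gives only the calls; its cut-offs may differ, and compounds hitting several targets are kept. The calls come from the array alone, and fixing a compound to the slide can hide its binding.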
A compound is marked Y if it was called a hit and N if it was screened but was not.
Compounds were drawn at random from those tested, without regard to their results.
A dash means that no call is listed here.

| # | compound | TPP | SAM-II | PreQ1 |
|---|---|---|---|---|
| 1 | `CCCCCn1c(NCCO)nc2c1c(=O)[nH]c(=O)n2C` | N | N | N |
| 2 | `CC1=C(C(=O)OCc2ccccc2)C2(C(=O)N(C)c3ccccc32)C(C#N)=C(N)O1` (stereo not drawn) | N | N | N |
| 3 | `Cc1cn(-c2cc(NC(=O)c3ccc(C)c(Nc4nccc(-c5cccnc5)n4)c3)cc(C(F)(F)F)c2)cn1` | N | N | N |
| 4 | `COCCn1cnnc1CCNC1CCC2(CCNCC2)CC1` | N | N | N |
| 5 | `Nc1c(C(=O)c2ccccc2)sc2nc3c(cc12)CCCC3` | N | N | N |
| 6 | `O=C(c1ccc(F)cc1)N1CCC[C@H](c2nc(-c3ccc(F)cc3)no2)C1` | N | N | N |
| 7 | `COc1ccc(Cl)cc1NC(=O)c1nnn(Cc2ccc(F)cc2)c1N` | N | N | N |
| 8 | `N#CC1=C(N)Oc2c(cc3ccccc3c2O)C1c1ccccc1` (stereo not drawn) | N | N | N |
| 9 | `COCCCNC1=C(C(N)=O)S(=O)(=O)c2ccccc21` | N | - | N |
| 10 | `Cn1c(=O)c2c(-c3ccc(Cl)cc3)n(CCO)cc2n(C)c1=O` | N | - | N |
| 11 | `OC[C@H]1O[C@@H](Oc2ccc(O)cc2)[C@H](O)[C@@H](O)[C@H]1O` | N | N | N |
| 12 | `CCC(O)c1nc2ccccc2n1CC1CCCCC1` (stereo not drawn) | N | - | N |
| 13 | `CCCCSc1nc(N)cc(N2CCCN(Cc3ccncc3)CC2)n1` | N | N | N |
| 14 | `CN(C)c1cccc(CN[C@@H]2c3ccccc3C3(CCNCC3)[C@H]2O)c1` | N | N | N |
| 15 | `OC[C@H]1CN(Cc2cccc(N3CCOCC3)c2)C[C@H]1CN1CCOCC1` | N | N | N |
| 16 | `O=C(NCC1CNCCO1)Nc1ccc2c(c1)C(=O)N(C1CC1)C2=O` (stereo not drawn) | N | N | N |
| 17 | `CCN1Cc2cccc(CNc3ccc(C)c(F)c3)c2C1` | N | - | N |
| 18 | `ClCC(CNCc1ccccc1)c1ccccc1` (stereo not drawn) | N | N | N |
| 19 | `Nc1ccc(C=Cc2ccc(N)cc2S(=O)(=O)[O-])c(S(=O)(=O)[O-])c1.[Na+].[Na+]` | N | N | N |
| 20 | `CCCCNc1oc(-c2ccc(F)cc2)nc1S(=O)(=O)c1ccccc1` | N | - | N |
| 21 | `Cc1cc(C[C@@H]2COC[C@@H]2NC(=O)c2cnc(N)nc2C)on1` | N | N | N |
| 22 | `CCCCCCNCc1ccc2c(c1)n(C)c(=O)n2C` | N | - | N |
| 23 | `CCOC(=O)C1CCN(c2c(NC(c3ccccc3)c3ccccc3)c(=O)c2=O)CC1` | N | N | N |
| 24 | `O=c1cc(CN2CCN(CCO)CC2)c2cc(Cl)ccc2o1` | N | N | N |
| 25 | `COc1ccc(CCNCc2cccc3[nH]ccc23)cc1` | N | N | N |
| 26 | `O=C(N[C@H]1CCNC1)C1CCN(C2CCN(CCCc3ccccc3)CC2)CC1` | N | N | N |
| 27 | `CN(C)c1ccc(NC2CC(=O)N(c3ccc(N4CCOCC4)cc3)C2=O)cc1` (stereo not drawn) | N | N | N |
| 28 | `Cc1ccc(Nc2nc(C)cc(N3CCN(S(=O)(=O)c4c(C)noc4C)CC3)n2)cc1` | N | - | N |
| 29 | `Nc1nc(N)n(-c2ccccc2)n1` | N | N | N |
| 30 | `COc1cc(C)sc1C(=O)N1CCC(N2CCC(O)CC2)CC1` | N | N | N |
| 31 | `Cc1onc(-c2ccccc2Cl)c1C(=O)N[C@@H]1C(=O)N2[C@@H]1SC(C)(C)[C@@H]2C(=O)[O-]` | N | N | N |
| 32 | `COc1cc2cc(CN(C)CCO)c(-c3cccc(Cl)c3)nc2cc1OC` | N | N | N |
| 33 | `Cc1ccc(Nc2c(-c3ccc(O)cc3)nc3cnccn23)c(C)c1` | N | - | N |
| 34 | `COc1ccccc1C1CNC(=O)c2nc(C(=O)N3CCNCC3)[nH]c2C1` (stereo not drawn) | N | N | N |
| 35 | `O=S(=O)(c1ccc(Cl)cc1)c1cnc2ccccc2c1NCc1ccc(F)cc1` | N | - | N |
| 36 | `Cc1ccc(-n2cnc3cc(NCc4ccncc4)ccc32)cc1` | N | N | N |
| 37 | `CCSc1nc(-c2cccc(Cl)c2)nc2c1Cc1c(CO)cnc(C)c1O2` | N | - | N |
| 38 | `Cc1ccc(C2(O)CCN(c3nc(N)nc4c3CCCC4)CC2)nc1` | N | N | N |
| 39 | `Cc1ccc(Nc2cc(C)nc3ccc(C)cc23)cc1` | N | N | N |
| 40 | `Cn1c(=O)c2c(c3ccccc31)OC(N)=C(C#N)C2c1ccccc1` (stereo not drawn) | N | N | N |
| 41 | `CC(C)Cc1cc(C(=O)N2C[C@@H](N)C[C@H]2C(=O)NC(C)C)nc(=O)[nH]1` | N | N | N |
| 42 | `CN1C(=O)CC(C(=O)N(CCO)Cc2cccs2)c2ccccc21` (stereo not drawn) | N | N | N |
| 43 | `OCc1ccc(-c2ncnn2CC2CCCCC2)cc1` | N | N | N |
| 44 | `CCOC(=O)c1cnn(-c2ccc(C(=O)Nc3ccc(C(F)(F)F)cc3)cn2)c1N` | N | N | N |
| 45 | `O=C(CNCCS(=O)(=O)N1CCCC1)Nc1ccc(Cl)cc1F` | N | N | N |
| 46 | `CCc1nc(NCC(C)C)c(C#N)c2c1CCCC2` | N | N | N |
| 47 | `Cc1cccc(Nc2nc(C)c3nc(C)n(-c4cccc(C)c4)c3n2)c1` | N | N | N |
| 48 | `Cn1ccnc1C1CCN(C(=O)C2Cc3cc(Cl)ccc3N2)CC1` (stereo not drawn) | N | N | N |
| 49 | `O=C(Nc1ccc(Cl)cc1C(F)(F)F)NC1CCNC1` (stereo not drawn) | N | N | N |
| 50 | `COCCCNc1ncnc2c1c(-c1ccccc1)cn2-c1ccccc1C` | N | - | N |
| 51 | `CC1=C(c2ccc(C)cc2)S(=O)(=O)N=C1Nc1ccc(C)c(C)c1` | N | - | N |
| 52 | `COc1ccc(-c2csc(Nc3ccc(S(=O)(=O)Nc4nc(C)cc(C)n4)cc3)n2)cc1C` | N | N | N |
| 53 | `COC(=O)c1nnn(CC(=O)Nc2ccc(Br)c(C)c2)c1N` | N | N | N |
| 54 | `Cc1c(C)n(-c2ccc(Br)cn2)c2ncnc(NCCCO)c12` | N | N | N |
| 55 | `COc1cc(CNc2ccc(-c3nc4ccccc4s3)cc2)ccc1OCC(=O)N1CCOCC1` | N | N | N |
| 56 | `CCOC(=O)c1cnc2c(C)cc(C)cc2c1NCC(C)O` (stereo not drawn) | Y | Y | Y |
| 57 | `O=c1[nH]cc(F)c(=O)[nH]1` | N | N | N |
| 58 | `COc1ccc(CCC(=O)c2c(O)cc(O[C@@H]3O[C@H](CO)[C@@H](O)[C@H](O)[C@@H]3O[C@@H]3O[C@@H](C)[C@H](O)[C@@H](O)[C@@H]3O)cc2O)cc1O` | N | N | N |
| 59 | `O=S(=O)(c1ccc2c(c1)CCCN2)N1CCC[C@H]2CCCC[C@@H]21` | N | N | N |
| 60 | `CSCCC(O)c1nc(C)nn1-c1cc(S(N)(=O)=O)ccc1F` (stereo not drawn) | N | N | N |
| 61 | `Oc1cc(CNCCCc2nnc3ccccn23)nc2ccc(F)cc12` | N | N | N |
| 62 | `C=CCSc1nnc(-c2ccccc2N)c(O)n1` | N | N | N |
| 63 | `CCOC(=O)c1c(C)oc2ncnc(Nc3ccc(CC)cc3)c12` | N | N | N |
| 64 | `O=C1CC(NCc2ccccc2)C(=O)N1c1ccc(Br)cc1` (stereo not drawn) | N | N | N |
| 65 | `COc1ccc2c(c1OC)C(=O)OC2Nc1cccc(Cl)c1` (stereo not drawn) | N | N | N |
| 66 | `CCOC(=O)N1CCC(N2C(=O)c3ccccc3C2Nc2cc(OC)ccc2OC)CC1` (stereo not drawn) | N | N | N |
| 67 | `Cc1ccc(NC(=O)c2nnn(Cc3cccc(Br)c3)c2N)cc1` | N | N | N |
| 68 | `CN1CCC(Oc2ccc(N)cc2)CC1` | N | N | N |
| 69 | `CCOC(=O)C1CCN(Cc2oc(CO)cc(=O)c2O)CC1` | N | N | N |
| 70 | `CCc1c(C)nc2nc(-c3ccccc3)nn2c1Nc1ccc(C(C)=O)cc1` | N | N | N |
| 71 | `O=C1CCCCCN1CO` | N | N | N |

For reference, 4 entries once more:

| compound | TPP | SAM-II | PreQ1 |
|---|---|---|---|
| `Cc1ccc(NC(=O)c2nnn(Cc3cccc(Br)c3)c2N)cc1` | N | N | N |
| `COc1ccccc1C1CNC(=O)c2nc(C(=O)N3CCNCC3)[nH]c2C1` (stereo not drawn) | N | N | N |
| `O=C(c1ccc(F)cc1)N1CCC[C@H](c2nc(-c3ccc(F)cc3)no2)C1` | N | N | N |
| `Cc1cc(C[C@@H]2COC[C@@H]2NC(=O)c2cnc(N)nc2C)on1` | N | N | N |